This note sets out measurements from publication PMC12152124.

The chains behind the UniProt entries cited, without tags or fusion partners.
UniProt P16892: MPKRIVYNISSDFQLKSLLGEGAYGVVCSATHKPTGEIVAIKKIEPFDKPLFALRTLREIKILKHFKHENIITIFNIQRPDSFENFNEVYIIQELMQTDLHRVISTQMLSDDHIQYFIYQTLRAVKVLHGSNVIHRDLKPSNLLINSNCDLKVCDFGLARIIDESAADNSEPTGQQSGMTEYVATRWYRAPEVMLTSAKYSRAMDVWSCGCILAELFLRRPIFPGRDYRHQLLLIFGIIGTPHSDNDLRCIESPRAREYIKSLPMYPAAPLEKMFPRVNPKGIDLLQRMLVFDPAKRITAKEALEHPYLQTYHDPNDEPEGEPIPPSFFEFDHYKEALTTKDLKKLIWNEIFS

These are yes or no findings as the source states them, for the method shown. In cells and extracts the contact can be indirect. These calls come from enrichment with a bait or labelling near it, and not all partners need be listed. Tags and fused reporters may be left off the sequences shown.

To fix the notation:
T1: Tda1-3HA (C-terminally 3xHA-tagged Tda1) (S. cerevisiae) (UniProt Q03533)
T1 sequence: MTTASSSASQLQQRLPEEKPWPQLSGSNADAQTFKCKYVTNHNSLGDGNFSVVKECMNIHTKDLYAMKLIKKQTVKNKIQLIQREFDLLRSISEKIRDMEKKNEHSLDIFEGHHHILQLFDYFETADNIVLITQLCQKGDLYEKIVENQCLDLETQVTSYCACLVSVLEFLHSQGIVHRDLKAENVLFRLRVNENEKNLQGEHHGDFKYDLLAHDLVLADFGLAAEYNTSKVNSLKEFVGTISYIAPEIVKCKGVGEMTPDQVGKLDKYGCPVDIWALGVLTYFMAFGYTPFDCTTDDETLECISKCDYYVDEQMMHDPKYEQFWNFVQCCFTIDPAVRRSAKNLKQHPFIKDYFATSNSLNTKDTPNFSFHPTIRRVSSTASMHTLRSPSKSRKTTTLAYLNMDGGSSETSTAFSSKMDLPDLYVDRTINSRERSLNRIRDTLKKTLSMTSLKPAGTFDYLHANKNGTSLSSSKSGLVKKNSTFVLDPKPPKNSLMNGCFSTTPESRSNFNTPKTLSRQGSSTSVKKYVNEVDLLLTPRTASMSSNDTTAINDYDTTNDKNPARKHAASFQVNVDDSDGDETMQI

B1: Rim11 (enzyme, UniProt P38615 1-370)
chain: MNIQSNNSPNLSNNIVSKQVYYAHPPPTIDPNDPVQISFPTTEVVGHGSFGVVFATVIQETNEKVAIKKVLQDKRFKNRELEIMKMLSHINIIDLKYFFYERDSQDEIYLNLILEYMPQSLYQRLRHFVHQRTPMSRLEIKYYMFQLFKSLNYLHHFANVCHRDIKPQNLLVDPETWSLKLCDFGSAKQLKPTEPNVSYICSRYYRAPELIFGATNYTNQIDIWSSGCVMAELLLGQPMFPGESGIDQLVEIIKILGTPSKQEICSMNPNYMEHKFPQIKPIPLSRVFKKEDDQTVEFLADVLKYDPLERFNALQCLCSPYFDELKLDDGKINQITTDLKLLEFDENVELGHLSPDELSSVKKKLYPKSK
B2: Mck1 (enzyme, UniProt P21965 1-375)
chain: MSTEEQNGVPLQRGSEFIADDVTSNKSNNTRRMLVKEYRKIGRGAFGTVVQAYLTQDKKNWLGPFAIKKVPAHTEYKSRELQILRIADHPNIVKLQYFFTHLSPQDNKVYQHLAMECLPETLQIEINRYVTNKLEMPLKHIRLYTYQIARGMLYLHGLGVCHRDIKPSNVLVDPETGVLKICDFGSAKKLEHNQPSISYICSRFYRAPELIIGCTQYTTQIDIWGLGCVMGEMLIGKAIFQGQEPLLQLREIAKLLGPPDKRFIFFSNPAYDGPLFSKPLFSGSSQQRFEKYFGHSGPDGIDLLMKILVYEPQQRLSPRRILAHQFFNELRNDDTFLPRGFTEPIKLPNLFDFNDFELQILGEFADKIKPTKVAE
B3: Hog1 (enzyme, UniProt P32485 1-435)
chain: MTTNEEFIRTQIFGTVFEITNRYNDLNPVGMGAFGLVCSATDTLTSQPVAIKKIMKPFSTAVLAKRTYRELKLLKHLRHENLICLQDIFLSPLEDIYFVTELQGTDLHRLLQTRPLEKQFVQYFLYQILRGLKYVHSAGVIHRDLKPSNILINENCDLKICDFGLARIQDPQMTGYVSTRYYRAPEIMLTWQKYDVEVDIWSAGCIFAEMIEGKPLFPGKDHVHQFSIITDLLGSPPKDVINTICSENTLKFVTSLPHRDPIPFSERFKTVEPDAVDLLEKMLVFDPKKRITAADALAHPYSAPYHDPTDEPVADAKFDWHFNDADLPVDTWRVMMYSEILDFHKIGGSDGQIDISATFDDQVAAATAAAAQAQAQAQAQVQLNMAAHSHNGAGTTGNDHSDIAGGNKVSDHVAANDTITDYGNQAIQYANEFQQ
B4: Mrk1 (enzyme, UniProt P50873 1-501)
chain: MTDVLRSLVRKISFNNSDNLQLKHKTSIQSNTALEKKKRKPDTIKKVSDVQVHHTVPNFNNSSEYINDIENLIISKLIDGGKEGIAVDHIEHANISDSKTDGKVANKHENISSKLSKEKVEKMINFDYRYIKTKERTIHKRVYKHDRKTDVDRKNHGGTIDISYPTTEVVGHGSFGVVVTTVIIETNQKVAIKKVLQDRRYKNRELETMKMLCHPNTVGLQYYFYEKDEEDEVYLNLVLDYMPQSLYQRLRHFVNLKMQMPRVEIKFYAYQLFKALNYLHNVPRICHRDIKPQNLLVDPTTFSFKICDFGSAKCLKPDQPNVSYICSRYYRAPELMFGATNYSNQVDVWSSACVIAELLLGKPLFSGESGIDQLVEIIKIMGIPTKDEISGMNPNYEDHVFPNIKPITLAEIFKAEDPDTLDLLTKTLKYHPCERLVPLQCLLSSYFDETKRCDTDTYVKAQNLRIFDFDVETELGHVPLVERPAIEERLKHFVSAPSSSL
B5: Slt2 (enzyme, UniProt Q00772 1-484)
chain: MADKIERHTFKVFNQDFSVDKRFQLIKEIGHGAYGIVCSARFAEAAEDTTVAIKKVTNVFSKTLLCKRSLRELKLLRHFRGHKNITCLYDMDIVFYPDGSINGLYLYEELMECDMHQIIKSGQPLTDAHYQSFTYQILCGLKYIHSADVLHRDLKPGNLLVNADCQLKICDFGLARGYSENPVENSQFLTEYVATRWYRAPEIMLSYQGYTKAIDVWSAGCILAEFLGGKPIFKGKDYVNQLNQILQVLGTPPDETLRRIGSKNVQDYIHQLGFIPKVPFVNLYPNANSQALDLLEQMLAFDPQKRITVDEALEHPYLSIWHDPADEPVCSEKFEFSFESVNDMEDLKQMVIQEVQDFRLFVRQPLLEEQRQLQLQQQQQQQQQQQQQQQQPSDVDNGNAAASEENYPKQMATSNSVAPQQESFGIHSQNLPRHDADFPPRPQESMMEMRPATGNTADIPPQNDNGTLLDLEKELEFGLDRKYF
B6: Kss1 (enzyme, UniProt P14681 1-368)
chain: MARTITFDIPSQYKLVDLIGEGAYGTVCSAIHKPSGIKVAIKKIQPFSKKLFVTRTIREIKLLRYFHEHENIISILDKVRPVSIDKLNAVYLVEELMETDLQKVINNQNSGFSTLSDDHVQYFTYQILRALKSIHSAQVIHRDIKPSNLLLNSNCDLKVCDFGLARCLASSSDSRETLVGFMTEYVATRWYRAPEIMLTFQEYTTAMDIWSCGCILAEMVSGKPLFPGRDYHHQLWLILEVLGTPSFEDFNQIKSKRAKEYIANLPMRPPLPWETVWSKTDLNPDMIDLLDKMLQFNPDKRISAAEALRHPYLAMYHDPSDEPEYPPLNLDDEFWKLDNKIMRPEEEEEVPIEMLKDMLYDELMKTME

One assay deals with T1, Tda1-3HA (C-terminally 3xHA-tagged Tda1) (S. cerevisiae). The assay can be described thus: affinity purification with mass spectrometry; Tda1 immunoprecipitated from cells cultured in low-glucose medium; associated proteins separated by SDS-PAGE, digested in gel, nano-LC-MS/MS.
B1: the binding entry is “binds”. As to B2, the binding result is reported as “binds”. The same measure, in the same setting: as for B3, the entry is “binds”. Same read-out and setting: as for B4, the entry is “binds”; as for B5, “binds”. Still for that read-out and setting: as for B6, the entry is “binds”.

The target is the same in another assay. The assay is described as above. The source holds these as a separate data set.
“Fus3 (from UniProt P16892 1-353) (enzyme)”: the binding entry is given as “binds”.
